Measured data: PubChem BioAssay AID1224827 (NIAID, 2016)
The whole screen tested about 3,800 reagents; shown is an unselected part. About 2,200 of all reagents (57%) were called active. 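Active means a strong reporter change in either direction; calls are per siRNA, not per gene; qiagen siRNAs gave weaker effects.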 Reagents against one gene are numbered here. Further read-outs or replicates are left out here.

- Test: 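Identify regulators of the macrophage TNF-alpha response to bacterial LPS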 (follow-up of hits)
- Cell system: RAW264.7 G9 mouse macrophage reporter clone
- Reagents: single siRNA against mouse genes, 100 nM siRNA
- Time to read-out: siRNA for 2 days, then LPS about 16 h
- Treatment: bacterial lipopolysaccharide (LPS), 10 ng/ml, cells fixed after overnight (about 16 h) stimulation
- Measured: 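TNF promoter reporter red fluorescence in nuclei, background subtracted, normalised per plate and to non-targeting control siRNA, as z-scores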
- Direction: TNF reporter z-score, mean and TNF reporter z-score: higher = stronger Tnf promoter reporter signal; gene median z, three same-vendor siRNAs: higher = stronger Tnf reporter signal for the gene
- Call rule: 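An siRNA is called active when its mean z-score over replicates is at least +2 or at most -2; control wells get no call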

no.	target gene	reagent	TNF reporter z-score, mean	gene median z, three same-vendor siRNAs	TNF reporter z-score, repeat 1	activity call
1	Tacc1 (GeneID 320165)	1	-3.66	-4.19	-3.64	active
2	Tacc1 (GeneID 320165)	2	-4.2	-4.19	-4.06	active
3	Tacc1 (GeneID 320165)	3	-4.43	-4.19	-4.55	active
4	Tacc1 (GeneID 320165)	4	4.96	0.788	7.73	active
5	Tacc1 (GeneID 320165)	5	0.229	0.788	1.07	inactive
6	Tacc1 (GeneID 320165)	6	-0.438	0.788	0.503	inactive
7	Nfatc3 (GeneID 18021)	1	8.47	-3.16	7.19	active
8	Nfatc3 (GeneID 18021)	2	-3.16	-3.16	-2.42	active
9	Nfatc3 (GeneID 18021)	3	-5.36	-3.16	-5.6	active
10	Nfatc3 (GeneID 18021)	4	1.1	-0.691	3.25	inactive
11	Nfatc3 (GeneID 18021)	5	-0.713	-0.691	-1.1	inactive
12	Nfatc3 (GeneID 18021)	6	-0.564	-0.691	1.19	inactive
13	Cntf (GeneID 12803)	1	-0.0329	-2.14	-1.16	inactive
14	Cntf (GeneID 12803)	2	-1.65	-2.14	-3.12	inactive
15	Cntf (GeneID 12803)	3	-4.87	-2.14	-4.85	active
16	Cntf (GeneID 12803)	4	1.76	-0.793	3.44	inactive
17	Cntf (GeneID 12803)	5	-0.793	-0.793	-0.874	inactive
18	Cntf (GeneID 12803)	6	-2.5	-0.793	-1.62	active
19	Slc25a14 (GeneID 20523)	1	-2.85	-3.17	-2.75	active
20	Slc25a14 (GeneID 20523)	2	-3.72	-3.17	-4.1	active
21	Slc25a14 (GeneID 20523)	3	-4.21	-3.17	-3.01	active
22	Slc25a14 (GeneID 20523)	4	3.14	0.911	5.5	active
23	Slc25a14 (GeneID 20523)	5	1.81	0.911	3.8	inactive
24	Slc25a14 (GeneID 20523)	6	-1.11	0.911	1.03	inactive
25	Fat4 (GeneID 329628)	1	7.35	4.59	7.72	active
26	Fat4 (GeneID 329628)	2	4.59	4.59	3.26	active
27	Fat4 (GeneID 329628)	3	-3.95	4.59	-3.85	active
28	Fat4 (GeneID 329628)	4	2.13	0.884	3.59	active
29	Fat4 (GeneID 329628)	5	0.903	0.884	1.09	inactive
30	Fat4 (GeneID 329628)	6	0.15	0.884	1.05	inactive
31	Kif23 (GeneID 71819)	1	-1.93	-3.64	-2.95	inactive
32	Kif23 (GeneID 71819)	2	-3.79	-3.64	-3.54	active
33	Kif23 (GeneID 71819)	3	-4.14	-3.64	-4.54	active
34	Kif23 (GeneID 71819)	4	0.899	-1.64	3.02	inactive
35	Kif23 (GeneID 71819)	5	0.364	-1.64	2.98	inactive
36	Kif23 (GeneID 71819)	6	-2.14	-1.64	-2.05	active
37	Tyw1 (GeneID 100929)	1	-0.763	-2.54	-0.658	inactive
38	Tyw1 (GeneID 100929)	2	-2.54	-2.54	-2.4	active
39	Tyw1 (GeneID 100929)	3	-3.71	-2.54	-4.3	active
40	Tyw1 (GeneID 100929)	4	1.42	-0.828	3.14	inactive
41	Tyw1 (GeneID 100929)	5	-0.802	-0.828	-0.24	inactive
42	Tyw1 (GeneID 100929)	6	-3.33	-0.828	-3.57	active
